In patent US20130078720, “METHOD FOR INDUCING PLURIPOTENCY IN HUMAN SOMATIC CELLS WITH PRDM14 OR NFRKB” (Agency for Science, Technology and Research, published 2013):

What was measured:
[1] = target: T1, PRDM14 (native, hESC nuclear extract) (Homo sapiens) (UniProt Q9GZV8); assay: EMSA; settings: protein in an extract, label: 5' biotin on sense strand
T1 sequence (limits assumed): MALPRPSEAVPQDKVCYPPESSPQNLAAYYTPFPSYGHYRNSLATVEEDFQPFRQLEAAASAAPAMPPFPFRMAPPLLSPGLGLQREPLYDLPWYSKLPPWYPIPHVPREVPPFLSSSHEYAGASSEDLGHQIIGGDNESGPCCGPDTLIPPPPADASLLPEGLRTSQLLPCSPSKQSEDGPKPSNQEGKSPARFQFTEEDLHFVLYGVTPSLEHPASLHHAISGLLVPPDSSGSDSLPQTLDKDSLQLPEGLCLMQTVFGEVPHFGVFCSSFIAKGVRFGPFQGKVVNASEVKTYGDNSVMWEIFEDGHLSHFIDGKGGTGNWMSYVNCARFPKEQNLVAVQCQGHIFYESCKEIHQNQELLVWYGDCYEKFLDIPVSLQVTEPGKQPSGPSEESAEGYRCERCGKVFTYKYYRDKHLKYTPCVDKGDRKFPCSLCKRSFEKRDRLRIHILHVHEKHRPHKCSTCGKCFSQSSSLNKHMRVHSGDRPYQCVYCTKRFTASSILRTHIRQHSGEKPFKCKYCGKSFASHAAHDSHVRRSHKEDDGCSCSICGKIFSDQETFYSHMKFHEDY

[2] = target: T2, PRDM14 DNA binding domain (C-terminal 179 aa) (Homo sapiens) (UniProt Q9GZV8); assay: EMSA; settings: mutations in motif disrupt complex; purified recombinant protein; protein details: His tag, pET42b, E. coli BL21; label: 5' biotin on sense strand; variant of CR2 probe
T2 sequence: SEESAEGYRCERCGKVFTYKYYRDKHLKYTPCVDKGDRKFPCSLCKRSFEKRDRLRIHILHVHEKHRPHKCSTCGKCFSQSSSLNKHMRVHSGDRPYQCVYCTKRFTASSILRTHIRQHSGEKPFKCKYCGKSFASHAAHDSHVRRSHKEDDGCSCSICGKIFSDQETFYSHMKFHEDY

Sequence	binding result ([1]; hESC nuclear extract, supershift assay with PRDM14 antibody)	binding result ([1]; mutations in motif disrupt complex, variant of CR2 probe)	binding result [2]
CAGCTCTAACCCTAAACAAGTGCTCAACCCTTGAATGGGCCTGGATGGCT (double strand) [CR2 probe]	binds	–	–
CATTTTTAACCCTAAACAAGTTTTTAACCCTTGAATGGGCCTGGATGGCT (double strand) [CR2 mutant probe]	–	no binding	no binding

For part of these data: Where cells or extracts were used, other partners may take part. Protein sequences can lack the tags named with them. Construct, isoform or probe ends are uncertain for at least one entry. A negative result means that nothing was seen under these conditions.
